Measurements reported in PubChem BioAssay AID743121 (NCATS, 2013)
Here is an unselected part of about 26,000 reagents tested. Of all reagents, 167 (0.63%) were called active. 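Calls are per gene from RSA p-values that are not deposited; an individual active-marked siRNA can sensitise only weakly.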 Further read-outs or replicates are left out here.

- Test: 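Knock-downs that sensitise breast cancer cells to camptothecin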 (primary screen)
- Cell system: MDA-MB-231 cells, a human breast cancer line
- Knock-down reagent: single siRNA against human genes, 20 nM siRNA (0.8 pmol per well)
- Timing: 120 h (drug added 48 h after transfection, read 72 h later)
- Conditions: camptothecin 20 nM (about EC30) for 72 h; vehicle 0.1% DMSO in parallel plates
- Measured: 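Cell viability by ATP luminescence (CellTiter-Glo) as % of non-targeting siRNA wells, and the log2 ratio of viability without drug over viability with camptothecin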
- Scale: log2 vehicle/camptothecin viability: higher = stronger sensitisation to camptothecin
- Rule for the call: 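Active genes have an RSA gene-level p-value below 0.001, computed from the ratios of their separate siRNAs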

The first 8 records, ahead of the listing:
| Gene | PubChem SID | log2 vehicle/camptothecin viability | outcome |
| --- | --- | --- | --- |
| ABCC6 (ATP binding cassette subfamily C member 6) | SID164353900 | 0.0584 | inactive |
| ABCC6 (ATP binding cassette subfamily C member 6) | SID164353903 | -0.256 | inactive |
| ABCC6 (ATP binding cassette subfamily C member 6) | SID164353904 | -0.214 | inactive |
| ABCC6 (ATP binding cassette subfamily C member 6) | SID164353907 | -0.713 | inactive |
| HSP90B1 (heat shock protein 90 beta family member 1) | SID164392585 | -0.559 | inactive |
| HSP90B1 (heat shock protein 90 beta family member 1) | SID164392586 | 0.48 | inactive |
| HSP90B1 (heat shock protein 90 beta family member 1) | SID164392589 | -0.0893 | inactive |
| HSP90B1 (heat shock protein 90 beta family member 1) | SID164392590 | -0.13 | inactive |

The listing, from the start:
| Gene | PubChem SID | log2 vehicle/camptothecin viability | outcome |
| --- | --- | --- | --- |
| ABCC6 (ATP binding cassette subfamily C member 6) | SID164353900 | 0.0584 | inactive |
| ABCC6 (ATP binding cassette subfamily C member 6) | SID164353903 | -0.256 | inactive |
| ABCC6 (ATP binding cassette subfamily C member 6) | SID164353904 | -0.214 | inactive |
| ABCC6 (ATP binding cassette subfamily C member 6) | SID164353907 | -0.713 | inactive |
| HSP90B1 (heat shock protein 90 beta family member 1) | SID164392585 | -0.559 | inactive |
| HSP90B1 (heat shock protein 90 beta family member 1) | SID164392586 | 0.48 | inactive |
| HSP90B1 (heat shock protein 90 beta family member 1) | SID164392589 | -0.0893 | inactive |
| HSP90B1 (heat shock protein 90 beta family member 1) | SID164392590 | -0.13 | inactive |
| SLURP1 (secreted LY6/PLAUR domain containing 1) | SID164492998 | -0.312 | inactive |
| SLURP1 (secreted LY6/PLAUR domain containing 1) | SID164493000 | 0.211 | inactive |
| SLURP1 (secreted LY6/PLAUR domain containing 1) | SID164493003 | -0.188 | inactive |
| SLURP1 (secreted LY6/PLAUR domain containing 1) | SID164493004 | -0.44 | inactive |
| COL5A1 (collagen type V alpha 1 chain) | SID164359134 | -0.677 | inactive |
| COL5A1 (collagen type V alpha 1 chain) | SID164359135 | -0.268 | inactive |
| COL5A1 (collagen type V alpha 1 chain) | SID164359137 | 0.0301 | inactive |
| COL5A1 (collagen type V alpha 1 chain) | SID164359138 | -0.0465 | inactive |
| AKAP5 (A-kinase anchoring protein 5) | SID164404110 | -0.575 | inactive |
| AKAP5 (A-kinase anchoring protein 5) | SID164404112 | -0.246 | inactive |
| AKAP5 (A-kinase anchoring protein 5) | SID164404113 | 0.2 | inactive |
| AKAP5 (A-kinase anchoring protein 5) | SID164404114 | -0.418 | inactive |
| RPS6KB2 (ribosomal protein S6 kinase B2) | SID164386337 | -0.322 | inactive |
| RPS6KB2 (ribosomal protein S6 kinase B2) | SID164386338 | -0.106 | inactive |
| RPS6KB2 (ribosomal protein S6 kinase B2) | SID164386339 | -0.171 | inactive |
| RPS6KB2 (ribosomal protein S6 kinase B2) | SID164386341 | -0.204 | inactive |
| DEK (DEK proto-oncogene) | SID164395779 | -0.336 | inactive |
| DEK (DEK proto-oncogene) | SID164395781 | -0.1 | inactive |
| DEK (DEK proto-oncogene) | SID164395782 | 0.0372 | inactive |
| DEK (DEK proto-oncogene) | SID164395785 | 0.186 | inactive |
| DOK2 (docking protein 2) | SID164401336 | -0.443 | inactive |
| DOK2 (docking protein 2) | SID164401337 | 0.219 | inactive |
| DOK2 (docking protein 2) | SID164401338 | -0.115 | inactive |
| DOK2 (docking protein 2) | SID164401339 | 1.3 | inactive |
| GPR32 (G protein-coupled receptor 32) | SID164367408 | 1.18 | inactive |
| GPR32 (G protein-coupled receptor 32) | SID164367409 | -0.0665 | inactive |
| GPR32 (G protein-coupled receptor 32) | SID164367410 | -0.0878 | inactive |
| GPR32 (G protein-coupled receptor 32) | SID164367411 | -0.302 | inactive |
| SLC5A5 | SID164388354 | -0.583 | inactive |
| SLC5A5 | SID164388358 | -0.368 | inactive |
| SLC5A5 | SID164388359 | -0.0298 | inactive |
| IPO5 (importin 5) | SID164373090 | -0.191 | inactive |
| IPO5 (importin 5) | SID164373091 | 0.113 | inactive |
| IPO5 (importin 5) | SID164373092 | 0.0687 | inactive |
| IPO5 (importin 5) | SID164373093 | 0.0292 | inactive |
| EMD (emerin) | SID164363215 | -0.181 | inactive |
| EMD (emerin) | SID164363216 | -0.243 | inactive |
| EMD (emerin) | SID164363217 | -0.498 | inactive |
| EMD (emerin) | SID164363218 | -0.039 | inactive |
| ABCC11 (ATP binding cassette subfamily C member 11) | SID164548346 | -0.265 | inactive |
| ABCC11 (ATP binding cassette subfamily C member 11) | SID164548347 | -0.13 | inactive |
| ABCC11 (ATP binding cassette subfamily C member 11) | SID164548348 | 0.0787 | inactive |
| ABCC11 (ATP binding cassette subfamily C member 11) | SID164548350 | -0.505 | inactive |
| CTNND1 (catenin delta 1) | SID164360425 | -0.206 | inactive |
| CTNND1 (catenin delta 1) | SID164360427 | -0.297 | inactive |
| CTNND1 (catenin delta 1) | SID164360428 | -0.283 | inactive |
| CTNND1 (catenin delta 1) | SID164360429 | -0.284 | inactive |
| AGBL4 (AGBL carboxypeptidase 4) | SID164547027 | -0.218 | inactive |
| AGBL4 (AGBL carboxypeptidase 4) | SID164547028 | -0.0782 | inactive |
| AGBL4 (AGBL carboxypeptidase 4) | SID164547029 | -0.588 | inactive |
| AGBL4 (AGBL carboxypeptidase 4) | SID164547031 | -0.324 | inactive |
| IL15RA (interleukin 15 receptor subunit alpha) | SID164371456 | 0.117 | inactive |
| IL15RA (interleukin 15 receptor subunit alpha) | SID164371457 | -0.0749 | inactive |
| IL15RA (interleukin 15 receptor subunit alpha) | SID164371458 | -0.212 | inactive |
| NBR1 (NBR1 autophagy cargo receptor) | SID164374440 | 0.12 | inactive |
| NBR1 (NBR1 autophagy cargo receptor) | SID164374442 | -0.181 | inactive |
| NBR1 (NBR1 autophagy cargo receptor) | SID164374445 | -0.0405 | inactive |
| NBR1 (NBR1 autophagy cargo receptor) | SID174316000 | -0.118 | inactive |
| RAB7B (RAB7B, member RAS oncogene family) | SID164656973 | -0.718 | inactive |
| RAB7B (RAB7B, member RAS oncogene family) | SID164656975 | -0.446 | inactive |
| RAB7B (RAB7B, member RAS oncogene family) | SID164656979 | -0.361 | inactive |
| RAB7B (RAB7B, member RAS oncogene family) | SID164656980 | -0.1 | inactive |
| ODAD1 (outer dynein arm docking complex subunit 1) | SID164552429 | -0.43 | inactive |
| ODAD1 (outer dynein arm docking complex subunit 1) | SID164552430 | -0.552 | inactive |
| ODAD1 (outer dynein arm docking complex subunit 1) | SID164552431 | -0.0162 | inactive |
| ODAD1 (outer dynein arm docking complex subunit 1) | SID164552433 | -0.276 | inactive |
| COPS6 (COP9 signalosome subunit 6) | SID164414723 | -0.0215 | inactive |
| COPS6 (COP9 signalosome subunit 6) | SID164414724 | -0.308 | inactive |
| COPS6 (COP9 signalosome subunit 6) | SID164414725 | -0.48 | inactive |
| COPS6 (COP9 signalosome subunit 6) | SID164414726 | -0.199 | inactive |
| MAT1A (methionine adenosyltransferase 1A) | SID164374864 | -0.228 | inactive |
| MAT1A (methionine adenosyltransferase 1A) | SID164374865 | -0.121 | inactive |
| MAT1A (methionine adenosyltransferase 1A) | SID164374866 | 0.235 | inactive |
| MAT1A (methionine adenosyltransferase 1A) | SID164374867 | 0.0188 | inactive |
| RAB31 (RAB31, member RAS oncogene family) | SID164415076 | -0.128 | inactive |
| RAB31 (RAB31, member RAS oncogene family) | SID164415078 | -0.383 | inactive |
| RAB31 (RAB31, member RAS oncogene family) | SID164415079 | -0.143 | inactive |
| RAB31 (RAB31, member RAS oncogene family) | SID164415080 | -0.453 | inactive |
| DEFA3 (defensin alpha 3) | SID164361385 | -0.07 | inactive |
